Measurements as given in article PMC4196752.
These are yes or no findings as the source states them, for the method shown. Binding seen in cells or lysates may run through a third protein. Some entries that bind do so weakly or less than the wild type. Tags and fused reporters may be left off the sequences shown.

T1: Pcf1-YFP (large subunit of fission yeast CAF-1) (S. pombe) (UniProt Q1MTN9)
T1 sequence: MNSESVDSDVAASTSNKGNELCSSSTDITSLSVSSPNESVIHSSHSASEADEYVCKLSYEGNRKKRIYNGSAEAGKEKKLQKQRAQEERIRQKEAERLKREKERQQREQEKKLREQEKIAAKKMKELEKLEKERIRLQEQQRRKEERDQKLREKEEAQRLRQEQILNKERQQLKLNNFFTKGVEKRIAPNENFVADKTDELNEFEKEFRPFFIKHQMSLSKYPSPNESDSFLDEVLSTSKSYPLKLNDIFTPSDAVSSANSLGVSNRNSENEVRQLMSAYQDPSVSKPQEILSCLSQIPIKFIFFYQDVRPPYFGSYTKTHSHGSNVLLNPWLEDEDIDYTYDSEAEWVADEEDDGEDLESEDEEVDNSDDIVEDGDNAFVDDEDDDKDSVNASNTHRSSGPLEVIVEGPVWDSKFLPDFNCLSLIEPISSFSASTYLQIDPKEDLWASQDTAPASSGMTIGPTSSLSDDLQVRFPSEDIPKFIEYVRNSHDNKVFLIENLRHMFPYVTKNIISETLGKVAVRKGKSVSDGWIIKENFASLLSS

B1: Rqh1-MYC (enzyme, UniProt Q09811 1-1328)
chain: MTVTKTNLNRHLDWFFRESPQKIENVTSPIKTLDFVKVKVSSSDIVVKDSIPHKSKNVFDDFDDGYAIDLTEEHQSSSLNNLKWKDVEGPNILKPIKKIAVPASESEEDFDDVDEEMLRAAEMEVFQSCQPLAVNTADTTVSHSTSSSNVPRSLNKIHDPSRFIKDNDVENRIHVSSASKVASISNTSKPNPIVSENPISATSVSIEIPIKPKELSNNLPFPRLNNNNTNNNNDNNAIEKRDSASPTPSSVSSQISIDFSTWPHQNLLQYLDILRDEKSEISDRIIEVMERYPFSSRFKEWIPKRDILSQKISSVLEVLSNNNNSNNNNGNNGTVPNAKTFFTPPSSITQQVPFPSTIIPESTVKENSTRPYVNSHLVANDKITATPFHSEAVVSPLQSNIRNSDIAEFDEFDIDDADFTFNTTDPINDESGASSDVVVIDDEEDDIENRPLNQALKASKAAVSNASLLQSSSLDRPLLGEMKDKNHKVLMPSLDDPMLSYPWSKEVLGCLKHKFHLKGFRKNQLEAINGTLSGKDVFILMPTGGGKSLCYQLPAVIEGGASRGVTLVISPLLSLMQDQLDHLRKLNIPSLPLSGEQPADERRQVISFLMAKNVLVKLLYVTPEGLASNGAITRVLKSLYERKLLARIVIDEAHCVSHWGHDFRPDYKQLGLLRDRYQGIPFMALTATANEIVKKDIINTLRMENCLELKSSFNRPNLFYEIKPKKDLYTELYRFISNGHLHESGIIYCLSRTSCEQVAAKLRNDYGLKAWHYHAGLEKVERQRIQNEWQSGSYKIIVATIAFGMGVDKGDVRFVIHHSFPKSLEGYYQETGRAGRDGKPAHCIMFYSYKDHVTFQKLIMSGDGDAETKERQRQMLRQVIQFCENKTDCRRKQVLAYFGENFDKVHCRKGCDICCEEATYIKQDMTEFSLQAIKLLKSISGKATLLQLMDIFRGSKSAKIVENGWDRLEGAGVGKLLNRGDSERLFHHLVSEGVFVEKVEANRRGFVSAYVVPGRQTIINSVLAGKRRIILDVKESSSKPDTSSRSLSRSKTLPALREYQLKSTTASVDCSIGTREVDEIYDSQMPPVKPSLIHSRNKIDLEELSGQKFMSEYEIDVMTRCLKDLKLLRSNLMAIDDSRVSSYFTDSVLLSMAKKLPRNVKELKEIHGVSNEKAVNLGPKFLQVIQKFIDEKEQNLEGTELDPSLQSLDTDYPIDTNALSLDHEQGFSDDSDSVYEPSSPIEEGDEEVDGQRKDILNFMNSQSLTQTGSVPKRKSTSYTRPSKSYRHKRGSTSYSRKRKYSTSQKDSRKTSKSANTSFIHPMVKQNYR
B2: endogenous Rqh1 (enzyme, UniProt Q09811 1-1328)
chain: B1 chain
B3: Pcf2-MYC (protein, UniProt O13985 1-512)
chain: MRAEVLQIRWHYDANDDHTPIYSVDFQKNSLNKFATCGGDSKIRIWQLITSESSTKVEYLSTLSRHTQAVNVVRFNPEGNILATAGDEGTIMLWVPTNTPITTLADDAEELALAKEYWKVKIVCRSMGSEIYDLCWSVDSNFLIAGAMDNSLRLYDAHTGQLLTQKFDHSHYVQGVCWDPLNQYIVSESSDRSICLYEIQEEKKNPKKFQLVLKSRICRIEYNVTKFELISVTKPLNNDESSGISEPIETSNNNESPVSKHEALSSTANIVKDGSLERTEPPNSLNSKISYSLYCNETLVSFFRRPAFSPDGLLLVTPAGRLRPHGQPNFEVPYTAYIYTRGSITKQPVACLNGFKKPVIAVRFSPIHYELNSFSNFSFTSVSFNLPYRMVFAVACQDAVYIYDTQTCKPFYRAVNLHYSNLTDIAWNDDGNVLLMTSIDGFCSVITFEPGELGVKSQHKISLPEKRSASPSSIDDSQDNTAGGPATTTLIPRKVESSKVSKKRIAPTPVYP

Biological target: T1, Pcf1-YFP (large subunit of fission yeast CAF-1) (S. pombe)
Assay: co-IP; S. pombe extract in EB buffer (50 mM HEPES, 50 mM KOAc pH 7.5, 5 mM EGTA, 1% triton X-100); Pcf1-YFP or Pcf1PIP^mut-YFP precipitated with anti-GFP and Dynabeads protein-G at 4°C; Western blot with anti-GFP, anti-Myc, Rqh1 antibody, anti-PCNA

| binding | Binder |
| --- | --- |
| binds | B1 |
| binds | B2 |
| binds | B3 |
